Results are given in words; binding and its absence hold for the method and conditions named. Binding can be weak; no strength is given.
Target: ArqI in the yeast two-hybrid screen (Pseudomonas aeruginosa) (UniProt Q9I5L9)
Assay: two-hybrid; yeast two-hybrid screen with ArqI against a random fragmented library of the PAO1 genome (Hybrigenics Services)

B1: PqsA fragment (residues 164-413), yeast two-hybrid clone (domain or fragment, UniProt Q9I4X3 164-413)
chain: TSGSTGAPKGVMHSLRNTLGFCRAFATELLALQAGDRLYSIPKMFFGYGMGNSLFFPWFSGASALLDDTWPSPERVLENLVAFRPRVLFGVPAIYASLRPQARELLSSVRLAFSAGSPLPRGEFEFWAAHGLEICDGIGATEVGHVFLANRPGQARADSTGLPLPGYECRLVDREGHTIEEAGRQGVLLVRGPGLSPGYWRASEEQQARFAGGWYRTGDLFERDESGAYRHCGREDDLFKVNGRWVVPTQ
binding: binds
